{
  "sequences": {"note": "Amino acid sequences for entries named in this document (tags omitted). Residues count along the entry.", "UniProt P78310, residues 20-365": "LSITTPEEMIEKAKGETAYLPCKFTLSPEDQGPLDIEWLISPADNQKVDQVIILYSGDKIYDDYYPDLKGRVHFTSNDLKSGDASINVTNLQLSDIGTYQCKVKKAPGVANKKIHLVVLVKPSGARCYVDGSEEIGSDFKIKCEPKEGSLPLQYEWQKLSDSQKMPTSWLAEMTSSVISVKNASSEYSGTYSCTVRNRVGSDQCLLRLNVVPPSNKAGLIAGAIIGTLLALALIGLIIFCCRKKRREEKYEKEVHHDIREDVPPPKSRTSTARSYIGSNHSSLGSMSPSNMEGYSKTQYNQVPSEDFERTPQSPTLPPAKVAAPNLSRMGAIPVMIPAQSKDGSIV"},
  "source": "paper doi:10.1101/2021.05.19.444882",
  "binders": {"B1": {"name": "HAdV-C5 fiber-knob protein (domain or fragment, UniProt P11818 386-581)", "chain": "TGAITVGNKNNDKLTLWTTPAPSPNCRLNAEKDAKLTLVLTKCGSQILATVSVLAVKGSLAPISGTVQSAHLIIRFDENGVLLNNSFLDPEYWNFRNGDLTEGTAYTNAVGFMPNLSAYPKSHGKTAKSNIVSQVYLNGDKTKPVTLTITLNGTQETGDTTPSAYSMSFSWDWSGHNYINEIFATSSYTFSYIAQE"}},
  "target": "coxsackie and adenovirus receptor (CAR) (UniProt P78310)",
  "test": "flow cytometry on cells",
  "note": "These are yes or no findings as the source states them, for the method shown. Some results given as binding are weak or reduced against the parent protein; the word gives no strength.",
  "data": [
    {"binder": "B1", "values": [
      {"measurement": "binding", "value": "binds"}
    ]}
  ]
}
